Among all 330,000 compounds or so, about 7,700 (2.3%) were called active. The inconclusive results got no clear call from the source; some entries with a clear call stand among them for comparison. The call rests on the fitted dose curve; in most records, active means well fitted inhibition curve with a large enough effect; inconclusive means small, poorly fitted or top-dose-only effect, or effect the other way; inactive means flat fitted curve, though single readings scatter. Where the call is inconclusive, the potency comes from a doubtful curve fit.
assay: qHTS screen for small molecules that inhibit ELG1-dependent DNA repair in human embryonic kidney (HEK293T) cells expressing luciferase-tagged ELG1; details: HEK293T ELG1-luciferase reporter, luminescence, 16 h, DNA damage induced by 5-fluorouridine; series mostly up to 46.1 µM; further: nearly all actives have a fitted effect of over 55% in size
Procedure, shortened: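 In this reporter screen, reduction of luminescence relative to DMSO vehicle indicated activity. Compounds and 5-fluorouridine were added together to 2,000 cells per well, incubated for 16 hr at 37 °C, then developed with ONE-Glo.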
Potency means the concentration at half of the fitted maximal effect.

| SMILES | Potency |
| --- | --- |
| O=[N+]([O-])c1ccc(N2CCCC2)cc1NC(c1ccccc1)c1ccccc1 | inconclusive: 10.3 µM [activator, partial curve, poor fit] |
| Cc1ccc(NC(=O)/C(=C/c2cccc([N+](=O)[O-])c2)NC(=O)C2CCCCC2)c(C)c1 | inconclusive: 35.5 µM [activator, single point] |
| COc1ccccc1CNC(=O)COC(=O)c1cccnc1SCC(=O)NCc1ccccc1OC | inconclusive: 20.6 µM [inhibitor, single point] |
| CC(=O)c1sc(=S)n(-c2ccc(Cl)cc2)c1C | inactive |
| CC(C)CNC(=O)C(=O)N/N=C/c1cccs1 | inconclusive: 18.4 µM [activator, partial curve] |
| Cc1cc(C)n(-c2nc3ccccc3c(=O)n2OCC#N)n1 | inconclusive: 14.6 µM [activator, partial curve] |
| COc1cccc(NC(=O)C2C3C=CC(C3)C2C(=O)O)c1 (stereo not drawn) | inactive |
| Cc1ccc(/C=N/NC(=O)C2=NNC(c3ccccc3)(c3ccccc3)C2)c(O)c1 | inconclusive: 5.17 µM [inhibitor, partial curve] |
| COc1ccc(C(=O)COC(=O)c2ccccn2)cc1OC | inconclusive: 18.3 µM [activator, partial curve, poor fit] |
| CCCCCCSc1ccc([C@H]2N[C@@](Cc3ccccc3)(C(=O)OC)[C@H]3C(=O)N(C)C(=O)[C@@H]23)cc1OC | inconclusive: 23.1 µM [activator, single point] |
| COC(=O)c1ccccc1NC(=O)CN(C)S(=O)(=O)c1ccc(OC)cc1 | inconclusive: 32.6 µM [inhibitor, single point] |
| CC(C)=CCC/C(C)=C/CNC(=O)C[C@H]1C[C@H](C(=O)N(C(C)C)C(C)C)[C@@]2(C)c3[nH]c4cc(-c5ccco5)ccc4c3CCN2C1=O | inactive |
| COc1cc(C=C(c2nc3ccccc3s2)c2nc3ccccc3s2)ccc1O | inconclusive: 29.1 µM [inhibitor, single point] |
| CCn1c(COc2cc(C)cc(C)c2)nnc1SCC(=O)N1CCN(c2ccccc2)CC1 | inconclusive: 25.9 µM [inhibitor, single point] |
| O=C(N/N=C/c1cc(Br)cs1)c1ccccc1[N+](=O)[O-] | inconclusive: 11.6 µM [inhibitor, partial curve, poor fit] |
| Cc1nc2sc3c(c2c(=O)[nH]1)CCCCC3 | inconclusive: 20.6 µM [activator, partial curve] |
| C=CCn1c(SCC(=O)Nc2ccc(F)cc2)nnc1-c1cnccn1 | inactive |
| CCc1onc(C)c1C(=O)Nc1ccc2c(c1)OCO2 | inactive |
| O=C(NCc1ccccn1)c1cc(-c2ccc(Cl)cc2)nc2ccccc12 | inconclusive: 29.1 µM [inhibitor, single point] |
| CNC(=O)CSc1nc2[nH]ncc2c(=O)[nH]1 | inactive |
| Cc1cc(OCC(=O)Nc2ccc(Br)cc2)cc2c1C(=O)CC(C)(C)O2 | active: 14.6 µM |
| COC(=O)c1ccc(NC(=O)c2sc3nc(-c4ccccc4)cn3c2C)cc1 | inconclusive: 29.1 µM [inhibitor, single point] |
| C=CCOc1ccc(Br)cc1CNCCO | inactive |

3 of these compounds, set out differently.
SMILES | Potency
COc1ccc(C(=O)COC(=O)c2ccccn2)cc1OC | inconclusive: 18.3 µM [activator, partial curve, poor fit]
C=CCn1c(SCC(=O)Nc2ccc(F)cc2)nnc1-c1cnccn1 | inactive
CNC(=O)CSc1nc2[nH]ncc2c(=O)[nH]1 | inactive

Going on with the list:

| SMILES | Potency |
| --- | --- |
| Cc1ccccc1NC(=O)NC1CCCCCCC1 | inconclusive: 29.1 µM [activator, single point] |
| COc1cc(NC(=O)c2ccccc2)c(OC)cc1NC(=O)CN1CCN(c2ccccn2)CC1 | inconclusive: 14.1 µM [inhibitor, single point] |
| Cc1cc(C(=O)CSc2nc(N)cc(=O)[nH]2)c(C)n1CCc1ccc(F)cc1 | inconclusive: 23.1 µM [inhibitor, single point] |
| CCOc1ccc(N(C)C(=O)CCc2nnc3ccc(N4CCCCC4)nn23)cc1 | inactive |
| CCOc1ccc(NC(=O)C2CCN(S(=O)(=O)c3ccc4c(c3)NC(=O)C(C)S4)CC2)cc1 (stereo not drawn) | inconclusive: 25.9 µM [inhibitor, single point] |
| CCOCc1nnc(NC(=O)C2c3ccccc3Oc3ccccc32)s1 | inconclusive: 23.1 µM [inhibitor, partial curve, poor fit] |
| CSc1nnc2c3ccccc3c3ccccc3c2n1 | inconclusive: 16.4 µM [activator, single point] |
| CC(C)(C)c1nc(SCC(=O)NNC(=O)c2ccccc2)c2ccccc2n1 | inconclusive: 7.3 µM [activator, partial curve, poor fit] |
| CCOC(=O)c1sc(N/N=C/c2ccccc2)nc1C | inconclusive: 11.6 µM [activator, partial curve] |
| Cc1ccc(N(C)S(=O)(=O)c2cccc(C(=O)Nc3ccc(C)cn3)c2)cc1 | inconclusive: 14.6 µM [inhibitor, partial curve, poor fit] |
| COc1ccc(CCNC(=O)c2ccc(CS(=O)(=O)Cc3cccc(C)c3)o2)cc1OC | active: 23.1 µM |
| CN1CCN(c2nc(-c3ccccc3)nc(-c3ccccc3)c2C#N)CC1 | inconclusive: 18.3 µM [inhibitor, single point] |
| COc1cc(C(=O)OCC(=O)Nc2sccc2C(N)=O)cc(OC)c1OC | inconclusive: 11.6 µM [inhibitor, partial curve, poor fit] |
| O=C(CN1CCN(S(=O)(=O)c2ccc(F)cc2)CC1)Nc1cc(C(F)(F)F)ccc1Cl | active: 25.9 µM |
| O=C(NCCCCc1ccccc1)Nc1ccc(F)cc1F | inconclusive: 8.2 µM [activator, partial curve] |
| O=[N+]([O-])c1cc(C(F)(F)F)ccc1NCCNC(=S)Nc1ccc(Cl)cc1 | inconclusive: 4.61 µM [inhibitor, single point] |
| NC(=O)CC(NC(=O)Cc1ccc(Br)cc1)c1ccc(N2CCC(N3CCCC3)CC2)c([N+](=O)[O-])c1 (stereo not drawn) | inactive |
| Cc1cc(=O)oc2cc(NC(=O)Cc3ccccc3[N+](=O)[O-])ccc12 | inconclusive: 1.83 µM [activator, full curve] |
| O=C(N/N=C/c1ccc(-c2ccccc2[N+](=O)[O-])o1)c1cncc(Br)c1 | inconclusive: 14.6 µM [inhibitor, partial curve, poor fit] |
| O=S(=O)(c1cc(F)ccc1F)N1CCN(c2ncnc3ccccc23)CC1 | active: 4.61 µM |
| Cc1ccc(NC(=O)c2cc(Cl)nc3ccccc23)cc1 | inactive |
| O=C(CCS(=O)(=O)c1ccccc1)NC12CC3CC(CC(C3)C1)C2 | inconclusive: 9.2 µM [activator, partial curve] |
| O=C(CN1C(=O)C(=O)c2ccccc21)OCN1C(=O)c2ccccc2C1=O | inactive |

| SMILES | Potency |
| --- | --- |
| C=CCOC(=O)C1=C(C)NC(SCC(N)=O)=C(C#N)C1c1cccs1 (stereo not drawn) | inactive |
| CCNC(=S)NNC(=O)c1cc(C)on1 | inactive |
| COc1c(/C=N/Nc2ccc([N+](=O)[O-])cc2[N+](=O)[O-])c(C)nn1-c1ccccc1 | inactive |
| CCOC(=O)c1c(NC(=O)CN(CC)CC)sc2c1CCN(C(=O)OCC)C2 | inconclusive: 20.6 µM [inhibitor, single point] |
| C/C(=C\c1ccc(Br)cc1)C(=O)c1c(C)cc(C)[nH]c1=O | active: 14.6 µM |
| CCOC(=O)C1=C(COC(=O)c2cccnc2Cl)NC(=O)NC1C (stereo not drawn) | inactive |
| CC(C)Cn1c(N)c(C(=O)COC(=O)c2ccc(Br)cc2)c(=O)n(C)c1=O | active: 20.6 µM |
| c1ccc2c(c1)ccc1nnc(SCc3ccc4c(c3)OCO4)n12 | inconclusive: 13 µM [activator, partial curve] |
| N#CC1=C(N)NC(SCC(=O)c2ccc(Cl)cc2)=C(C#N)C12CCCC2 | inconclusive: 16.4 µM [inhibitor, partial curve, poor fit] |
| CCc1ccc(NC(=O)N2CCc3ccccc3C2)cc1 | inconclusive: 2.31 µM [activator, partial curve] |
| O=C(N[C@H]1/C=C\[C@@H](O)CCCC1)OCc1ccccc1 | inconclusive: 9.2 µM [activator, partial curve] |
| CN(C)c1ccc(CC2C(=O)Nc3ccccc32)cc1 (stereo not drawn) | inconclusive: 14.6 µM [activator, partial curve] |
| Cc1nnc(C)n1/N=C/c1ccc(C(C)C)cc1 | inconclusive: 29.1 µM [activator, single point] |
| Nc1ccccc1-c1nnc(-c2ccccc2N)n1N | inconclusive: 20.6 µM [activator, single point] |
| COc1cc(C(=O)NCc2ccc(F)cc2)cc(Cl)c1OC | inconclusive: 29.1 µM [inhibitor, partial curve, poor fit] |
| COC(=O)C1=C(C)N(Cc2ccco2)C(=O)/C1=C\c1ccc([N+](=O)[O-])cc1 | inactive |
| CC(=O)c1cc2c(cc1NC(=O)CSc1nc3ccc(C)cc3[nH]1)OCO2 | inconclusive: 29.1 µM [inhibitor, single point] |
| CCC(C)Nc1nc(-c2ccccn2)nc2ccccc12 (stereo not drawn) | inconclusive: 5.8 µM [inhibitor, single point] |
| COc1ccc(OC)c(NC(=O)Cn2c(C)nc3ccccc3c2=O)c1 | inconclusive: 7.3 µM [activator, partial curve] |
| Cc1ccccc1NC(=O)COc1ccccc1C | inconclusive: 20.6 µM [activator, single point] |
| O=C(Cn1ncc(N2CCCC2)c(Cl)c1=O)c1ccc(Cl)cc1 | inconclusive: 20.6 µM [activator, partial curve] |
| C=CCn1c(SCCCc2ccccc2)nc2c1c(=O)[nH]c(=O)n2C | inconclusive: 32.6 µM [inhibitor, single point] |

Copied from the list.
Potency, CC(C)Cn1c(N)c(C(=O)COC(=O)c2ccc(Br)cc2)c(=O)n(C)c1=O reads active: 20.6 µM
Potency, CC(=O)c1cc2c(cc1NC(=O)CSc1nc3ccc(C)cc3[nH]1)OCO2 reads inconclusive: 29.1 µM [inhibitor, single point]

From PubChem BioAssay AID504467 (National Center for Advancing Translational Sciences (NCATS), 2011)
